# Assay results published in the supplement of paper PMC10849652.
# Protein sequences, listed by entry. Tags and fused reporters are not part of them. Lines headed by an entry give the natural chain unless they say otherwise; changes in a name come on top.
# UniProt Q70CQ3: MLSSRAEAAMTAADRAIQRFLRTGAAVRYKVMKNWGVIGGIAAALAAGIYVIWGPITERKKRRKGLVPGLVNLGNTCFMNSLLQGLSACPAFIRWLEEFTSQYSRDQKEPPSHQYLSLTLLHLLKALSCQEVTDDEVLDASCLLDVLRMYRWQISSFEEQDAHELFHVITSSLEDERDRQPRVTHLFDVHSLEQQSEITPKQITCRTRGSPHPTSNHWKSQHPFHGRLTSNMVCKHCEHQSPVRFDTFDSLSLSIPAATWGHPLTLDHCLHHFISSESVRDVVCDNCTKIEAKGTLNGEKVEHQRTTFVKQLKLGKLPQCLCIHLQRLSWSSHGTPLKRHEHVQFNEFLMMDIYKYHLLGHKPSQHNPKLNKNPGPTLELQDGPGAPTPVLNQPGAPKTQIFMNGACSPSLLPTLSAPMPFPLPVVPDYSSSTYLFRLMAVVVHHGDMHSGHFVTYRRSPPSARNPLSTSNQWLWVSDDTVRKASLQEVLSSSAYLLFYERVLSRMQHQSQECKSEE
# UniProt P13051, whole entry, looked up: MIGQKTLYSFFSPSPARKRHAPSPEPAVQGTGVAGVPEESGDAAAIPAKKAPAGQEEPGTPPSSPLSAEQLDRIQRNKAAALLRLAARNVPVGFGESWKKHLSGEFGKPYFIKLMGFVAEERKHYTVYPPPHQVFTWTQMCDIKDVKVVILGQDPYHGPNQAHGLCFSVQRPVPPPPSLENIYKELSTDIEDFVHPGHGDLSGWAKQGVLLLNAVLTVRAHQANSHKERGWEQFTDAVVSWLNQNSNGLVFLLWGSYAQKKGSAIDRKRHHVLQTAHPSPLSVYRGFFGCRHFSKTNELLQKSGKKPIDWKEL
# UniProt A6NNY8: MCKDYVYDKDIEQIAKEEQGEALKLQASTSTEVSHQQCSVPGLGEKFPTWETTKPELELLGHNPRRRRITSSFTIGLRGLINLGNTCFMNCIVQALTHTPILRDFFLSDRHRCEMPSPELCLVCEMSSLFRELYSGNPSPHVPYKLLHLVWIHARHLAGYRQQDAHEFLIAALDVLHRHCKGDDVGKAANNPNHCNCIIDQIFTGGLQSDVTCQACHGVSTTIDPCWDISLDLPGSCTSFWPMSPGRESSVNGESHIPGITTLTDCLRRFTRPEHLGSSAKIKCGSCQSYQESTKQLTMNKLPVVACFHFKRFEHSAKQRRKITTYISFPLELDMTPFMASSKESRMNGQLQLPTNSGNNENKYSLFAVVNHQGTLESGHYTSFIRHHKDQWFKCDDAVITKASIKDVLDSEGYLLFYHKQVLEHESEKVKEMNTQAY
# UniProt Q86T82: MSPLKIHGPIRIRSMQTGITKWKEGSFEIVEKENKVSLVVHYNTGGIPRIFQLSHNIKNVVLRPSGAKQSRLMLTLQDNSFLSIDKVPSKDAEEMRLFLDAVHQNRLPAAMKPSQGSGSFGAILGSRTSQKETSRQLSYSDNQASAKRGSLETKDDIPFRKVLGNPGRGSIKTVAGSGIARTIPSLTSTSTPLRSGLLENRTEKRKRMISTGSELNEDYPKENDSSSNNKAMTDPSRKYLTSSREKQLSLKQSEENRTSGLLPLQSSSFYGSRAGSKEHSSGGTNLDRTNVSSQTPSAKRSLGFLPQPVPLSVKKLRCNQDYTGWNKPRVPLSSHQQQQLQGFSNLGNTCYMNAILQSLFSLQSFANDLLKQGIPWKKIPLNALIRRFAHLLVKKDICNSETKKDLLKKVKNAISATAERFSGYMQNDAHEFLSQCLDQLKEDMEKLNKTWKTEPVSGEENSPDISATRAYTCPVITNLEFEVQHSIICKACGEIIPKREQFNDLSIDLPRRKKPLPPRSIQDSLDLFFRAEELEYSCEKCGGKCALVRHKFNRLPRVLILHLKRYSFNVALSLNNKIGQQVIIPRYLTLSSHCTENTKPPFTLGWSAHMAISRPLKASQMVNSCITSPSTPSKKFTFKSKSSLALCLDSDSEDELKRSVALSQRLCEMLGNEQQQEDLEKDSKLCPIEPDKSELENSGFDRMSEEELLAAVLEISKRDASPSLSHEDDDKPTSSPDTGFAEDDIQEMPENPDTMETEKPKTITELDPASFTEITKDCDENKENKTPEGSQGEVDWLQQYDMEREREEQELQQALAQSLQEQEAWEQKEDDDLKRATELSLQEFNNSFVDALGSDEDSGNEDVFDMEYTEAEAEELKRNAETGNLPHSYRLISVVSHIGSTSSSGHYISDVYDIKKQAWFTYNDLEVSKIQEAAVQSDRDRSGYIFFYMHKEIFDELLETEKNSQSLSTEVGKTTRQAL
# UniProt P15692, whole entry, looked up: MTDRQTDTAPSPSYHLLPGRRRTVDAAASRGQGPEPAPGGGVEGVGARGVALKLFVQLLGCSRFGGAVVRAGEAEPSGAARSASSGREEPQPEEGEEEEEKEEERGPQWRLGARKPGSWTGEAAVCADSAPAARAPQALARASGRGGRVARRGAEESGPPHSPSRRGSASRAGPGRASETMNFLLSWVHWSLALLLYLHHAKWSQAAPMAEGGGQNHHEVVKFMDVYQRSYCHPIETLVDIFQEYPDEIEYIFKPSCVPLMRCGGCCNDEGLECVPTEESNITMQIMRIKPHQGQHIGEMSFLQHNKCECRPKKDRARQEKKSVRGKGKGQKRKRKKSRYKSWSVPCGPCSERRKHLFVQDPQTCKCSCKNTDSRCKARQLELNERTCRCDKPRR
# UniProt Q9H9J4: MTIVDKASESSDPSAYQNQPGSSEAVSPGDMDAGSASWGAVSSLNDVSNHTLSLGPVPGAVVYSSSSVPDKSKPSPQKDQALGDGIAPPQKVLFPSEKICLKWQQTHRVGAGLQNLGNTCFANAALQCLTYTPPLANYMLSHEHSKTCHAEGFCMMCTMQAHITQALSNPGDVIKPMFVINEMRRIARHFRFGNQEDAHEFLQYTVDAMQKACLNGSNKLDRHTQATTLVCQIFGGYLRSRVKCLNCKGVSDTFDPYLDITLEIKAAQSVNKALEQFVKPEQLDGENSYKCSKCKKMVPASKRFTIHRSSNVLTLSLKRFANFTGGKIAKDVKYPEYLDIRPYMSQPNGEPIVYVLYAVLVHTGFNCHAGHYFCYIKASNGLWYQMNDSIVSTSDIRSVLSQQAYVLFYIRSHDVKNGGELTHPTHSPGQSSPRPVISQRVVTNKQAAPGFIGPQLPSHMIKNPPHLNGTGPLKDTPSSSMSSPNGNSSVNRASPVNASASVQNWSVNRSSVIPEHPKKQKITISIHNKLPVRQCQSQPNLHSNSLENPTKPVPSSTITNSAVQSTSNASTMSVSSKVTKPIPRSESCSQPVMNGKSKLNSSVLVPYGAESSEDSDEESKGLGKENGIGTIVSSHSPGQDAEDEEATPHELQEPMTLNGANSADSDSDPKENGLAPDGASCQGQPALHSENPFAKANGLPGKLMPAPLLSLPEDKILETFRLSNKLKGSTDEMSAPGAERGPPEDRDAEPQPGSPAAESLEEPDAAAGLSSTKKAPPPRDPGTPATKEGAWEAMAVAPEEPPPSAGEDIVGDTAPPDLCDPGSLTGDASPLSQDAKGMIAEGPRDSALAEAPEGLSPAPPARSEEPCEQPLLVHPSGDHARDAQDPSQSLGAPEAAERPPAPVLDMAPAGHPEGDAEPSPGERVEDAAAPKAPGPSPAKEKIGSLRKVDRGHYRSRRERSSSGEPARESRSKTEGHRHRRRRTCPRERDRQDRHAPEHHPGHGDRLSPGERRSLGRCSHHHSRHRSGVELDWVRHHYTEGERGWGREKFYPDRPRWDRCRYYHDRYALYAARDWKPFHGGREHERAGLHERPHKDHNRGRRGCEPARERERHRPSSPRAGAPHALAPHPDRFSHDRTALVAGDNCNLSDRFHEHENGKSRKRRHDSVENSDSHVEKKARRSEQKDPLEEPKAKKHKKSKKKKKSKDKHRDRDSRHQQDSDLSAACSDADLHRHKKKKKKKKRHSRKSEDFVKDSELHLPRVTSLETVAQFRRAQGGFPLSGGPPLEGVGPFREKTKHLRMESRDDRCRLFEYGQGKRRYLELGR
# UniProt O94763, whole entry, looked up: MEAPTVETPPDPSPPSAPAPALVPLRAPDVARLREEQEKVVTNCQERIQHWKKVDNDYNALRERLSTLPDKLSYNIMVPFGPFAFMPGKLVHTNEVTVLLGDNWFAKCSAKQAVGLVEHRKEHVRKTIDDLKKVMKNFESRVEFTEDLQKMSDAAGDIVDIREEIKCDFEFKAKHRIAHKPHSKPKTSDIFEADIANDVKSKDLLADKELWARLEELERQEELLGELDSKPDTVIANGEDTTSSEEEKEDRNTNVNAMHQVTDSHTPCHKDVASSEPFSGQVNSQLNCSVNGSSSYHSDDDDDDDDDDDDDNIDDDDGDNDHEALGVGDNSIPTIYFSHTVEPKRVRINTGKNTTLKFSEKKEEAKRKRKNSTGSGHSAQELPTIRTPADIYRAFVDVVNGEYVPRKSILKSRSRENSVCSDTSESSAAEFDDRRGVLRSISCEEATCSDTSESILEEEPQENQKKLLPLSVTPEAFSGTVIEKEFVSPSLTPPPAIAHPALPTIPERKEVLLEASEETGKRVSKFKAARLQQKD
# UniProt Q14135: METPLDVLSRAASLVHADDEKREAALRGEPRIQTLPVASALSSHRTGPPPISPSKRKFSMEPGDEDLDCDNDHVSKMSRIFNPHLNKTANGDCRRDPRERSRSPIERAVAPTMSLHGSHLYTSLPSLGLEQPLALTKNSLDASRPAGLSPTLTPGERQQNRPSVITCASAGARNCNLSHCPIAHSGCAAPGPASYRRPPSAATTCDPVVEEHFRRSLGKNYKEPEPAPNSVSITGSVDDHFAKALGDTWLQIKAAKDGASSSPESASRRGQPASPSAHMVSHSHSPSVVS
# UniProt Q8TEY7: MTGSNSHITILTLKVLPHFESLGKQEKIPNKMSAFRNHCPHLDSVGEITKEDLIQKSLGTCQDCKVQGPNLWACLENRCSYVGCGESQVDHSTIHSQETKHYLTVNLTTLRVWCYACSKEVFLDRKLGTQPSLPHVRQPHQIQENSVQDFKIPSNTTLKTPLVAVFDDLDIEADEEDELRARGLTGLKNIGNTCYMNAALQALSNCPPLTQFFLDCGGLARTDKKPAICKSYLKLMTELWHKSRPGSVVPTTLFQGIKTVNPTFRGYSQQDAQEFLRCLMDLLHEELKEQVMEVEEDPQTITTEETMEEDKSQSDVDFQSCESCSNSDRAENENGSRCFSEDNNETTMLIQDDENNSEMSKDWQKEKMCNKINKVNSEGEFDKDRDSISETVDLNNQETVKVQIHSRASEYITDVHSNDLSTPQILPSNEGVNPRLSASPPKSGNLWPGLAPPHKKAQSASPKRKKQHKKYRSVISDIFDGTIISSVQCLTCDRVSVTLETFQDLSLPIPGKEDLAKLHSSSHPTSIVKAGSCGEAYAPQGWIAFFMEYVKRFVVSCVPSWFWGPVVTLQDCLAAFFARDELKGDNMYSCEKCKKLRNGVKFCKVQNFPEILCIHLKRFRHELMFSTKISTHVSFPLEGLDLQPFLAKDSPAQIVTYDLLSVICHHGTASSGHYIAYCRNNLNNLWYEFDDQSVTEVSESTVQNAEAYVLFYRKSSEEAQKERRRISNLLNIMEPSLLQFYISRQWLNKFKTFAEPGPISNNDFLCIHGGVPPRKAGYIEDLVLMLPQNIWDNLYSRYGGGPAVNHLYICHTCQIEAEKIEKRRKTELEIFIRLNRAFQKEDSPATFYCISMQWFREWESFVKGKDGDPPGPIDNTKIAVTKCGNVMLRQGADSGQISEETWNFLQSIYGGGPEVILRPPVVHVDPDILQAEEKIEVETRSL
# This is one part of the list.
# What was measured:
# Test in all cases: log2 fold change, soluble protein after heating vs DMSO (PISA); higher = thermal stabilisation; K562 lysate, 10 uM; active = over 0.2 and 3.5 SD of the protein, either way, in both replicates (recomputed)
# [1] = compound: CCn1c(C(=O)N(C2CC2)C2CC2)cc2c3c(ncn3C)c(Nc3cc(C)n(C)n3)nc21
# In short: (§1)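 K562 pellets were dounce-homogenised in PBS pH 7.4 containing 1 mM MgCl2, and the crude extract, at 1 mg/mL protein, was exposed to 10 μM compound for 30 min. Aliquots were heated for 3 min across 48°C-58°C, pooled, brought to 0.5% NP-40 at 4°C and spun at 21,000xg for 90 min, with the supernatant taken as soluble protein. TMTpro 16plex LC-MS/MS with equalised channel sums quantified that protein. Values are log-two fold changes in thermal stability relative to solvent controls, taken from duplicates.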
# saracatinib = compound: CN1CCN(CCOc2cc(OC3CCOCC3)c3c(Nc4c(Cl)ccc5c4OCO5)ncnc3c2)CC1 [saracatinib]
# In short: as §1
# sotrastaurin = compound: CN1CCN(c2nc(C3=C(c4c[nH]c5ccccc45)C(=O)NC3=O)c3ccccc3n2)CC1 [sotrastaurin]
# In short: as §1
# Tubastatin A = compound: CN1CCc2c(c3ccccc3n2Cc2ccc(C(=O)NO)cc2)C1 [Tubastatin A]
# In short: as §1
# [2] = compound: CNC(=O)C1=CC=CC=C1NC2=NC(=NC=C2Cl)NC3=C(C=C(C=C3)N4CCOCC4)OC
# In short: as §1
# [3] = compound: CNc1nc(-c2ccc3c(N)n[nH]c3c2)cc(N2C[C@@H](C(=O)NC3CCCCC3)CC[C@H]2C)n1
# In short: as §1
# alisertib = compound: COc1cc(Nc2ncc3c(n2)-c2ccc(Cl)cc2C(c2c(F)cccc2OC)=NC3)ccc1C(=O)O [alisertib]
# In short: as §1
# gefitinib = compound: COc1cc2ncnc(Nc3ccc(F)c(Cl)c3)c2cc1OCCCN1CCOCC1 [gefitinib]
# In short: as §1
# [4] = compound: CCn1cc(-c2ccnc3[nH]c(-c4cccc(CN(C)C)c4)cc23)c(-c2ccc(NC(=O)N(C)C)cc2)n1
# In short: as §1
# [5] = compound: CN1CCC(CNc2ccc3ncc(-c4cccc(OC(F)(F)F)c4)n3n2)CC1
# In short: as §1
# alvocidib = compound: CN1CC[C@H](c2c(O)cc(O)c3c(=O)cc(-c4ccccc4Cl)oc23)[C@H](O)C1 [alvocidib]
# In short: as §1
# barasertib = compound: CCN(CCCOc1ccc2c(Nc3cc(CC(=O)Nc4cccc(F)c4)[nH]n3)ncnc2c1)CCOP(=O)(O)O [barasertib]
# In short: as §1
# [6] = compound: CC[C@@H]1C(=O)N(C)c2cnc(Nc3ccc(C(=O)NC4CCN(C)CC4)cc3OC)nc2N1C1CCCC1
# In short: as §1
# encorafenib = compound: COC(=O)N[C@@H](C)CNc1nccc(-c2cn(C(C)C)nc2-c2cc(Cl)cc(NS(C)(=O)=O)c2F)n1 [encorafenib]
# In short: as §1
# [7] = compound: COC(=O)[C@H](CCSC)NC(=O)C1=C(C=C(C=C1)NC[C@H](CS)N)C2=CC=CC=C2
# In short: as §1
# vemurafenib = compound: CCCS(=O)(=O)Nc1ccc(F)c(C(=O)c2c[nH]c3ncc(-c4ccc(Cl)cc4)cc23)c1F [vemurafenib]
# In short: as §1
# defactinib = compound: CNC(=O)c1ccc(Nc2ncc(C(F)(F)F)c(NCc3nccnc3N(C)S(C)(=O)=O)n2)cc1 [defactinib]
# In short: as §1
# [8] = compound: CCCS(=O)(=O)Nc1ccc(F)c(C(=O)c2c[nH]c3ncc(Cl)cc23)c1F
# In short: as §1
# volasertib = compound: CC[C@@H]1C(=O)N(C)c2cnc(Nc3ccc(C(=O)N[C@H]4CC[C@H](N5CCN(CC6CC6)CC5)CC4)cc3OC)nc2N1C(C)C [volasertib]
# In short: as §1
# [9] = compound: COc1cc2nc(-c3cc(F)ccc3O)nc(N[C@@H]3CNC[C@H]3C(C)(C)O)c2cc1OC
# In short: as §1
target,measurement,setting,value
UNC119 (UniProt Q13432),log2 fold change,[1],inactive: -0.035
same,log2 fold change,saracatinib,inactive: -0.09
same,log2 fold change,sotrastaurin,inactive: -0.109
same,log2 fold change,Tubastatin A,inactive: 0.109
same,log2 fold change,[2],inactive: -0.15
same,log2 fold change,[3],inactive: 0.127
same,log2 fold change,alisertib,inactive: 0.047
same,log2 fold change,gefitinib,inactive: 0.004
USP30 (UniProt Q70CQ3),log2 fold change,[1],inactive: -0.108
same,log2 fold change,[4],inactive: -0.077
same,log2 fold change,[5],inactive: -0.154
same,log2 fold change,saracatinib,inactive: -0.135
same,log2 fold change,sotrastaurin,inactive: 0.006
same,log2 fold change,alvocidib,inactive: 0.017
same,log2 fold change,Tubastatin A,inactive: -0.052
same,log2 fold change,[2],inactive: 0.124
same,log2 fold change,[3],inactive: 0.277
UNG (UniProt P13051),log2 fold change,barasertib,inactive: 0.097
same,log2 fold change,[6],inactive: -0.107
same,log2 fold change,[1],inactive: 0.177
same,log2 fold change,[4],inactive: 0.034
same,log2 fold change,[5],inactive: -0.05
same,log2 fold change,saracatinib,inactive: 0.051
same,log2 fold change,alvocidib,inactive: 0.025
same,log2 fold change,Tubastatin A,inactive: -0.1
same,log2 fold change,[2],inactive: -0.064
same,log2 fold change,[3],inactive: -0.193
same,log2 fold change,encorafenib,inactive: -0.046
same,log2 fold change,[7],inactive: -0.114
USP27X (UniProt A6NNY8),log2 fold change,[1],inactive: -0.176
same,log2 fold change,sotrastaurin,inactive: -0.061
same,log2 fold change,Tubastatin A,inactive: -0.037
USP37 (UniProt Q86T82),log2 fold change,vemurafenib,inactive: -0.188
same,log2 fold change,[6],inactive: 0.09
same,log2 fold change,sotrastaurin,inactive: -0.046
same,log2 fold change,defactinib,inactive: -0.013
same,log2 fold change,encorafenib,inactive: 0.013
same,log2 fold change,[7],inactive: 0.11
VEGFA isoform 14 (UniProt P15692),log2 fold change,[4],inactive: 0.09
same,log2 fold change,[5],inactive: 0.05
same,log2 fold change,sotrastaurin,inactive: -0.077
same,log2 fold change,alvocidib,inactive: 0.015
USP42 (UniProt Q9H9J4),log2 fold change,[8],inactive: -0.105
same,log2 fold change,barasertib,inactive: -0.136
same,log2 fold change,[6],inactive: 0.095
same,log2 fold change,volasertib,inactive: 0.072
same,log2 fold change,sotrastaurin,inactive: -0.081
same,log2 fold change,encorafenib,inactive: 0.08
same,log2 fold change,[7],inactive: 0.264
same,log2 fold change,alisertib,inactive: -0.018
same,log2 fold change,[9],inactive: -0.023
same,log2 fold change,gefitinib,inactive: -0.018
URI1 isoform 4 (UniProt O94763),log2 fold change,[8],inactive: 0.047
same,log2 fold change,barasertib,inactive: -0.1
same,log2 fold change,[6],inactive: 0.072
same,log2 fold change,volasertib,inactive: 0.014
same,log2 fold change,[1],inactive: -0.062
same,log2 fold change,[4],inactive: -0.092
same,log2 fold change,[5],inactive: 0.079
same,log2 fold change,saracatinib,inactive: -0.029
same,log2 fold change,sotrastaurin,inactive: 0.022
same,log2 fold change,alvocidib,inactive: 0.051
same,log2 fold change,Tubastatin A,inactive: -0.008
same,log2 fold change,[2],inactive: 0.025
same,log2 fold change,[3],inactive: 0.07
same,log2 fold change,encorafenib,inactive: 0.03
same,log2 fold change,[7],inactive: 0.156
same,log2 fold change,alisertib,inactive: -0.071
same,log2 fold change,[9],inactive: -0.026
same,log2 fold change,gefitinib,inactive: 0.099
USP5 (UniProt F5H571),log2 fold change,[8],inactive: -0.067
same,log2 fold change,barasertib,inactive: 0.123
same,log2 fold change,volasertib,inactive: -0.12
same,log2 fold change,alisertib,inactive: -0.282
same,log2 fold change,[9],inactive: 0.058
same,log2 fold change,gefitinib,inactive: -0.005
VGLL4 isoform 4 (UniProt Q14135),log2 fold change,barasertib,inactive: -0.118
same,log2 fold change,[1],inactive: -0.016
same,log2 fold change,[4],inactive: -0.017
same,log2 fold change,[5],inactive: 0.069
same,log2 fold change,saracatinib,inactive: 0.019
same,log2 fold change,sotrastaurin,inactive: -0.062
same,log2 fold change,alvocidib,inactive: 0.001
same,log2 fold change,Tubastatin A,inactive: 0.024
same,log2 fold change,[2],inactive: 0.124
same,log2 fold change,[3],inactive: 0.05
same,log2 fold change,alisertib,inactive: 0.011
same,log2 fold change,gefitinib,inactive: 0.028
UNC13A (UniProt Q9UPW8),log2 fold change,[4],active: -1.79
same,log2 fold change,[5],inactive: 0.531
same,log2 fold change,alvocidib,inactive: -0.643
same,log2 fold change,[2],inactive: -0.11
same,log2 fold change,alisertib,inactive: -0.067
same,log2 fold change,gefitinib,inactive: -0.076
VEGFA (UniProt H0YBI8),log2 fold change,[4],inactive: -0.056
same,log2 fold change,[5],inactive: 0.126
same,log2 fold change,alvocidib,inactive: -0.08
UQCRB (UniProt E5RHG9),log2 fold change,saracatinib,inactive: 0.022
same,log2 fold change,[3],inactive: -0.039
USP33 (UniProt Q8TEY7),log2 fold change,[1],inactive: -0.016
same,log2 fold change,[4],inactive: -0.141
same,log2 fold change,[5],inactive: 0.13
same,log2 fold change,saracatinib,inactive: 0.259
same,log2 fold change,sotrastaurin,inactive: 0.26
same,log2 fold change,alvocidib,inactive: 0.127
same,log2 fold change,Tubastatin A,inactive: -0.202
same,log2 fold change,[3],inactive: 0.036
same,log2 fold change,alisertib,inactive: -0.054
same,log2 fold change,gefitinib,inactive: -0.154

# Some of the entries so far, tab-delimited:
target	measurement	setting	value
UNC119 (UniProt Q13432)	log2 fold change	[1]	inactive: -0.035
same	log2 fold change	saracatinib	inactive: -0.09
same	log2 fold change	Tubastatin A	inactive: 0.109
USP30 (UniProt Q70CQ3)	log2 fold change	alvocidib	inactive: 0.017
UNG (UniProt P13051)	log2 fold change	[6]	inactive: -0.107
same	log2 fold change	saracatinib	inactive: 0.051
same	log2 fold change	Tubastatin A	inactive: -0.1
same	log2 fold change	[3]	inactive: -0.193
USP27X (UniProt A6NNY8)	log2 fold change	sotrastaurin	inactive: -0.061
same	log2 fold change	Tubastatin A	inactive: -0.037
USP37 (UniProt Q86T82)	log2 fold change	encorafenib	inactive: 0.013
USP42 (UniProt Q9H9J4)	log2 fold change	[8]	inactive: -0.105
same	log2 fold change	volasertib	inactive: 0.072
same	log2 fold change	encorafenib	inactive: 0.08
same	log2 fold change	alisertib	inactive: -0.018
URI1 isoform 4 (UniProt O94763)	log2 fold change	[6]	inactive: 0.072
same	log2 fold change	volasertib	inactive: 0.014
same	log2 fold change	[4]	inactive: -0.092
same	log2 fold change	[2]	inactive: 0.025
same	log2 fold change	[3]	inactive: 0.07
same	log2 fold change	alisertib	inactive: -0.071
same	log2 fold change	gefitinib	inactive: 0.099
VGLL4 isoform 4 (UniProt Q14135)	log2 fold change	[5]	inactive: 0.069
same	log2 fold change	saracatinib	inactive: 0.019
same	log2 fold change	[2]	inactive: 0.124
same	log2 fold change	gefitinib	inactive: 0.028
UNC13A (UniProt Q9UPW8)	log2 fold change	alisertib	inactive: -0.067
VEGFA (UniProt H0YBI8)	log2 fold change	[4]	inactive: -0.056
same	log2 fold change	[5]	inactive: 0.126
same	log2 fold change	alvocidib	inactive: -0.08
USP33 (UniProt Q8TEY7)	log2 fold change	[4]	inactive: -0.141
same	log2 fold change	[5]	inactive: 0.13
